No constants are given. Whether binding was seen depends on the method and setting. Binding seen in cells or lysates may run through a third protein. For some of these results: Binding calls can cover weak binding; strength is not graded here. Where a sequence is shown, tags or fusion partners need not be part of it.
T1: MYC-MARCH2 (human) (UniProt Q9P0N8)
T1 sequence: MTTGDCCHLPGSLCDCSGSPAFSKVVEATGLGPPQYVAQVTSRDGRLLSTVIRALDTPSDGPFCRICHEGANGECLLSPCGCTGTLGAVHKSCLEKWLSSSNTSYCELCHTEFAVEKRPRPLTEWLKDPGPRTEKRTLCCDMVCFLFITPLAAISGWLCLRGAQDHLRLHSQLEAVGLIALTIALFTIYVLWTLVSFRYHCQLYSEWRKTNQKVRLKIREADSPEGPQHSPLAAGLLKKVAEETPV


Key:
Experiment in all cases: co-IP; tagged proteins co-expressed (HEK293T for Fig. 2B); lysis in 1% NP-40, 20 mM Tris-HCl pH 7.6, 150 mM NaCl, 2 mM EDTA; magnetic beads overnight at 4 °C, five washes; immunoblot
MYC-MARCH2 (human) = molecular target: T1, MYC-MARCH2 (human)
[1] = molecular target: HA-MARCH2 RING domain alone (human)
[2] = molecular target: HA-MARCH2 TM-containing C-terminus (human)
[3] = molecular target: HA-MARCH2 with TM1 deleted (human) (UniProt Q9P0N8)

Molecule | binding (MYC-MARCH2 (human)) | binding [1] | binding [2] | binding [3]
ALK5 transmembrane (TM)-containing N-terminus (human) (domain or fragment) | binds weakly |  |  | 
FLAG-ALK5 (receptor, UniProt P36897 34-503) LQCFCHLCTKDNFTCVTDGLCFVSVTETTDKVIHNSMCIAEIDLIPRDRPFVCAPSSKTGSVTTTYCCNQDHCNKIELPTTVKSSPGLGPVELAAVIAGPVCFVCISLMLMVYICHNRTVIHHRVPNEEDPSLDRPFISEGTTLKDLIYDMTTSGSGSGLPLLVQRTIARTIVLQESIGKGRFGEVWRGKWRGEEVAVKIFSSREERSWFREAEIYQTVMLRHENILGFIAADNKDNGTWTQLWLVSDYHEHGSLFDYLNRYTVTVEGMIKLALSTASGLAHLHMEIVGTQGKPAIAHRDLKSKNILVKKNGTCCIADLGLAVRHDSATDTIDIAPNHRVGTKRYMAPEVLDDSINMKHFESFKRADIYAMGLVFWEIARRCSIGGIHEDYQLPYYDLVPSDPSVEEMRKVVCEQKLRPNIPNRWQSCEALRVMAKIMRECWYANGAARLTALRIKKTLSQLSQQEGIKM |  | no binding | binds | binds

Source: publication PMC12603192
